Results deposited as PubChem BioAssay AID1508597 (Cure First, 2020).

- Test: 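Survival screen with siRNA in ovarian cancer cells derived from patients, with or without rucaparib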 (primary screen)
- Cells: human ovarian carcinoma lines grown from tumours: OCI-P5x (papillary serous) and OCI-C5x (clear cell)
- Knock-down reagent: siRNA pool against human genes, 1.25 pmol siRNA per well
- Time to read-out: 72 h or 96 h, depending on the cell culture
- Conditions: rucaparib 20 µM (about IC30) or vehicle, present until read-out
- Rucaparib or vehicle: Rucaparib
- Cell line: OCI-C5x (clear cell)
- Detection: 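ATP luminescence measured at 72 or 96 h according to the culture, then normalised and expressed as percent viability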
- Reading the numbers: viability, normalised: higher = more viable cells remaining
- Rule for the call: 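a well counts as a hit if its normalised viability is under 80 percent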
- Calls: active = viability under 80%; inactive = viability 80% or more
Shown is a random part of the about 2,100 reagents, under one of the conditions tested. 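Calls flag viability under 80% in either arm, not effects specific to rucaparib; the reference for percent is not stated.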 A reagent listed more than once was tested more than once; the source does not tell the runs apart. The record does not give: the 100% reference.

The opening 9 entries, to show the layout:
no.	gene	technical replicate	viability, normalised (%)	call
1	PLCH2	1	70.8	active
2	PLCH2	2	64.3	active
3	PLCH2	3	52.5	active
4	RPL5	1	38.3	active
5	RPL5	2	46.1	active
6	RPL5	3	55.1	active
7	PIWIL2	1	70	active
8	PIWIL2	2	49.1	active
9	PIWIL2	3	52	active

The list itself, from the first entry:
no.	gene	technical replicate	viability, normalised (%)	call
1	PLCH2	1	70.8	active
2	PLCH2	2	64.3	active
3	PLCH2	3	52.5	active
4	RPL5	1	38.3	active
5	RPL5	2	46.1	active
6	RPL5	3	55.1	active
7	PIWIL2	1	70	active
8	PIWIL2	2	49.1	active
9	PIWIL2	3	52	active
10	EPHA3	1	57.3	active
11	EPHA3	2	59.2	active
12	EPHA3	3	57.9	active
13	SMARCA1	1	40.1	active
14	SMARCA1	2	37.9	active
15	SMARCA1	3	45	active
16	PHF6	1	50.7	active
17	PHF6	2	44.3	active
18	PHF6	3	34.1	active
19	GAD1	1	48.5	active
20	GAD1	2	38.8	active
21	GAD1	3	42	active
22	AKT3	1	63.5	active
23	AKT3	2	57.2	active
24	AKT3	3	78.8	active
25	EYA3	1	51	active
26	EYA3	2	29.9	active
27	EYA3	3	28.1	active
28	MED20	1	33.3	active
29	MED20	2	35.3	active
30	MED20	3	36.5	active
31	PDE7A	1	44.3	active
32	PDE7A	2	49.2	active
33	PDE7A	3	57.2	active
34	SFMBT1	1	37.3	active
35	SFMBT1	2	46	active
36	SFMBT1	3	46.4	active
37	ARAF	1	59.1	active
38	ARAF	2	55.1	active
39	ARAF	3	44.2	active
40	RPS6KA3	1	91.2	inactive
41	RPS6KA3	2	77.7	active
42	RPS6KA3	3	84.3	inactive
43	PDE12	1	40.4	active
44	PDE12	2	39.2	active
45	PDE12	3	43.2	active
46	SND1	1	47.4	active
47	SND1	2	51.4	active
48	SND1	3	49.4	active
49	SIRT6	1	44.5	active
50	SIRT6	1	72.7	active
51	SIRT6	2	42.4	active
52	SIRT6	2	77.9	active
53	SIRT6	3	48.4	active
54	SIRT6	3	35.9	active
55	DMAP1	1	61.5	active
56	DMAP1	2	50.9	active
57	DMAP1	3	54.9	active
58	SGK1	1	60.9	active
59	SGK1	2	53.9	active
60	SGK1	3	54.2	active
61	MED28	1	48.7	active
62	MED28	2	48.6	active
63	MED28	3	38.9	active
64	CHKB	1	64.9	active
65	CHKB	2	50.1	active
66	CHKB	3	61.7	active
67	NEK3	1	52.1	active
68	NEK3	2	55.3	active
69	NEK3	3	49.7	active
70	BACC1	1	76.8	active
71	BACC1	1	62.9	active
72	BACC1	2	42.2	active
73	BACC1	2	49.4	active
74	BACC1	3	53.9	active
75	BACC1	3	59.4	active
